This is an account of results in paper PMC8363014.

Amino acid sequences for entries named in this document (tags omitted).
UniProt Q6VAM4: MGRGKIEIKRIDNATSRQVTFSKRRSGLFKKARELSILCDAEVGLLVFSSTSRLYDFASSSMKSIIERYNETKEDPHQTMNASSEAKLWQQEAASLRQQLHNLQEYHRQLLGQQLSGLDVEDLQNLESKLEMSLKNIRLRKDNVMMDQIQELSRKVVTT

These are yes or no findings as the source states them, for the method shown. Some results given as binding are weak or reduced against the parent protein; the word gives no strength. For part of these data: Where a sequence is shown, tags or fusion partners need not be part of it.

What all share (assay): two-hybrid; SAPK9 in pGBKT7 (BD), OsMADS23 in pGADT7 (AD); yeast strain Y2H Gold; growth on SD/-Ade-His-Leu-Trp in the presence of aba and X-α-gal
For assay [1], the target named is T1, SAPK10 (yeast two-hybrid construct) (rice) (UniProt Q75H77).
T1 sequence: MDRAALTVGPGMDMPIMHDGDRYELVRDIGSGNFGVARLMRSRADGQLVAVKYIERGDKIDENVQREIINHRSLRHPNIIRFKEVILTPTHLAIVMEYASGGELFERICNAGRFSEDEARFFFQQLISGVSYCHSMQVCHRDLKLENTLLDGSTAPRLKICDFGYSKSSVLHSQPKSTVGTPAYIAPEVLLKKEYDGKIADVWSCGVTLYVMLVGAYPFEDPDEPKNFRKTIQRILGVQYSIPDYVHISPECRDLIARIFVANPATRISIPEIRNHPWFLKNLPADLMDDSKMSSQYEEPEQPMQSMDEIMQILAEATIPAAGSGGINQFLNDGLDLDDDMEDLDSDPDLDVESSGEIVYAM

Assay [2] addresses T2, SAPK8 (yeast two-hybrid construct) (rice) (UniProt Q7Y0B9).
T2 sequence: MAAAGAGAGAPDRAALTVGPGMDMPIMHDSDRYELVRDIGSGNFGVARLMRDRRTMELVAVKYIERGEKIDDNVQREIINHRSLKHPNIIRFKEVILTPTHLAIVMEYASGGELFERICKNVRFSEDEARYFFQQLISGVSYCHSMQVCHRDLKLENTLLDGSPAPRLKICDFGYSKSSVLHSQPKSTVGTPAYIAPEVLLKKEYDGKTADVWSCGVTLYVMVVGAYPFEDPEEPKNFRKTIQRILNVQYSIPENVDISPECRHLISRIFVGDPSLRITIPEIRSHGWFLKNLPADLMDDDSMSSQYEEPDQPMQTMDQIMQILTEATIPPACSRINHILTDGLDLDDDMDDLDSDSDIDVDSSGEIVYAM

Assay [3] has as its target T3, SAPK9 in pGBKT7 (binding domain fusion) (rice) (UniProt Q75V57).
T3 sequence: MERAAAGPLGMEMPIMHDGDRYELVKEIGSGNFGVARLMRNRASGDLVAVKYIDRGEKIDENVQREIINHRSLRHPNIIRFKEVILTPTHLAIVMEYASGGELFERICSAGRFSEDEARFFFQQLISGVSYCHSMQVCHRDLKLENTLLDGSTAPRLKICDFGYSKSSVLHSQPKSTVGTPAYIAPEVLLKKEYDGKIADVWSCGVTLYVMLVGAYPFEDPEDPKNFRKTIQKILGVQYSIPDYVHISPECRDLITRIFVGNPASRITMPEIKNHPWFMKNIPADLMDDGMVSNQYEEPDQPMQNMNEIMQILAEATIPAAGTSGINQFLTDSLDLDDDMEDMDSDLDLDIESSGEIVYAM

For “OsMADS23 in pGADT7 (activation domain fusion) (from UniProt Q6VAM4 1-159)”, the values for the binding entry in assay [1], in assay [2] and in assay [3] were “no binding”, “no binding” and “binds”, respectively.
